Assay results as given in paper PMC9491610.
Positions count from the first letter of the chain named. These are yes or no findings as the source states them, for the method shown. Binding seen in cells or lysates may run through a third protein. Some results given as binding are weak or reduced against the parent protein; the word gives no strength.

Experiments:
Assay in all cases: co-IP; Stu2-HA precipitated with anti-HA magnetic beads from 90 mg cryo-milled yeast extract in 1x PBS pH 7.4 with 0.1% Tween; precipitate blotted with anti γ-tubulin (anti-Tub4)
[1] = biological target: T1, Stu2-K469Q-3xHA (S. cerevisiae) (UniProt P46675)
T1 sequence: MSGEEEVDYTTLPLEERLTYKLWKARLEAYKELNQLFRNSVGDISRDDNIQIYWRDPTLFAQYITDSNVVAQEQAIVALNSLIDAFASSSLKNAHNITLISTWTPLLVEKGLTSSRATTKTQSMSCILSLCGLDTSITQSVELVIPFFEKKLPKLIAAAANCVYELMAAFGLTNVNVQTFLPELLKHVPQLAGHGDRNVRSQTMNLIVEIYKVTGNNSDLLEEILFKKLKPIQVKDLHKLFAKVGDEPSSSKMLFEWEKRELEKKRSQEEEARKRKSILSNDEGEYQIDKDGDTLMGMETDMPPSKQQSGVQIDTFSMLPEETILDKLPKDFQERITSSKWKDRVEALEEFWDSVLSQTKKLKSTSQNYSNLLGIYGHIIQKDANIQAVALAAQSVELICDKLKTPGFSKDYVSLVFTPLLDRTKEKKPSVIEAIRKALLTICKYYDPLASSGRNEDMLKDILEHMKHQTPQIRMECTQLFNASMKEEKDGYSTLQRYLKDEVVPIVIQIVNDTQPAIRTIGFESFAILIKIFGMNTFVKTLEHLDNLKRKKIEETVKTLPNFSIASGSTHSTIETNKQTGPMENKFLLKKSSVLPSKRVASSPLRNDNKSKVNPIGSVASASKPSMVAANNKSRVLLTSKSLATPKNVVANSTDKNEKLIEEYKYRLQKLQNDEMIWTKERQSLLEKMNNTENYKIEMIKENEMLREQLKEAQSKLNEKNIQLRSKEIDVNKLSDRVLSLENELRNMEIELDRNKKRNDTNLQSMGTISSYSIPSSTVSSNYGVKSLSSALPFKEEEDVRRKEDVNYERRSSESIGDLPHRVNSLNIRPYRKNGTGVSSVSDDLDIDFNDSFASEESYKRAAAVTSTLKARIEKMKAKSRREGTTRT

[2] = biological target: T2, Stu2-K870Q-3xHA (S. cerevisiae) (UniProt P46675)
T2 sequence: T1 sequence with Q469K, K870Q

[3] = biological target: T3, Stu2-K252R-3xHA (S. cerevisiae) (UniProt P46675)
T3 sequence: T1 sequence with K252R, Q469K

Measured: binding

B1: γ-tubulin (Tub4) (protein, UniProt P53378 1-473)
chain: MGGEIITLQAGQCGNHVGKFLWSQLAKEHAIGTDGLSQLPDSSTERDDDTKPFFRENSRNKFTPRAIMMDSEPSVIADVENTFRGFFDPRNTWVASDGASAGNSWANGYDIGTRNQDDILNKIDKEIDSTDNFEGFQLLHSVAGGTGSGLGSNLLEALCDRYPKKILTTYSVFPARSSEVVVQSYNTILALRRLIEDSDATVVFDNASLLNISGKVFRNPNIDLQHTNQLISTIISSVTNSIRFPSYMYSSMSSIYSTLIPSPELHFLSPSFTPFTSDYIHDDIAHKGHSSYDVMLDLLDPSNSLVSTAMNNPTYFNVYNTIIGNVEPRQISRAMTKLQQRIKFPSWSSSAMHVNIGRRSPYLPLQPNENEVSGMMLSNMSTVVNVFENACNTFDKVFAKGAFLNNYNVGDLFQSMQNVQDEFAESREVVQSLMEDYVAAEQDSYLDDVLVDDENMVGELEEDLDADGDHKLV
binds: [1] | [2] | [3]
